Here are results for 35 targets from the supplement of paper PMC12819154, “High-throughput peptide-centric local stability assay extends protein–ligand identification to membrane proteins, tissues and bacteria” (Nature Structural & Molecular Biology, 2025).

Protein sequences, listed by entry. Tags and fused reporters are not part of them. Lines headed by an entry give the natural chain unless they say otherwise; changes in a name come on top.
UniProt A2ADY9: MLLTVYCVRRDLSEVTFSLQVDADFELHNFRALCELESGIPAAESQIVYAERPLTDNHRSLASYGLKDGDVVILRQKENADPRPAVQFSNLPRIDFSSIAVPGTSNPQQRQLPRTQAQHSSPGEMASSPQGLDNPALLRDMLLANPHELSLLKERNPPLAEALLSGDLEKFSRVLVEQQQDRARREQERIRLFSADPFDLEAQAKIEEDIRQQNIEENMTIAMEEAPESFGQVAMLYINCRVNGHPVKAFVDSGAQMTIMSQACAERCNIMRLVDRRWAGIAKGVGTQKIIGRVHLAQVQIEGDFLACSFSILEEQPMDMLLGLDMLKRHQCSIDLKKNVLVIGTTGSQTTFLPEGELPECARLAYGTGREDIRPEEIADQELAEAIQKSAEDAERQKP
UniProt A2AIV2: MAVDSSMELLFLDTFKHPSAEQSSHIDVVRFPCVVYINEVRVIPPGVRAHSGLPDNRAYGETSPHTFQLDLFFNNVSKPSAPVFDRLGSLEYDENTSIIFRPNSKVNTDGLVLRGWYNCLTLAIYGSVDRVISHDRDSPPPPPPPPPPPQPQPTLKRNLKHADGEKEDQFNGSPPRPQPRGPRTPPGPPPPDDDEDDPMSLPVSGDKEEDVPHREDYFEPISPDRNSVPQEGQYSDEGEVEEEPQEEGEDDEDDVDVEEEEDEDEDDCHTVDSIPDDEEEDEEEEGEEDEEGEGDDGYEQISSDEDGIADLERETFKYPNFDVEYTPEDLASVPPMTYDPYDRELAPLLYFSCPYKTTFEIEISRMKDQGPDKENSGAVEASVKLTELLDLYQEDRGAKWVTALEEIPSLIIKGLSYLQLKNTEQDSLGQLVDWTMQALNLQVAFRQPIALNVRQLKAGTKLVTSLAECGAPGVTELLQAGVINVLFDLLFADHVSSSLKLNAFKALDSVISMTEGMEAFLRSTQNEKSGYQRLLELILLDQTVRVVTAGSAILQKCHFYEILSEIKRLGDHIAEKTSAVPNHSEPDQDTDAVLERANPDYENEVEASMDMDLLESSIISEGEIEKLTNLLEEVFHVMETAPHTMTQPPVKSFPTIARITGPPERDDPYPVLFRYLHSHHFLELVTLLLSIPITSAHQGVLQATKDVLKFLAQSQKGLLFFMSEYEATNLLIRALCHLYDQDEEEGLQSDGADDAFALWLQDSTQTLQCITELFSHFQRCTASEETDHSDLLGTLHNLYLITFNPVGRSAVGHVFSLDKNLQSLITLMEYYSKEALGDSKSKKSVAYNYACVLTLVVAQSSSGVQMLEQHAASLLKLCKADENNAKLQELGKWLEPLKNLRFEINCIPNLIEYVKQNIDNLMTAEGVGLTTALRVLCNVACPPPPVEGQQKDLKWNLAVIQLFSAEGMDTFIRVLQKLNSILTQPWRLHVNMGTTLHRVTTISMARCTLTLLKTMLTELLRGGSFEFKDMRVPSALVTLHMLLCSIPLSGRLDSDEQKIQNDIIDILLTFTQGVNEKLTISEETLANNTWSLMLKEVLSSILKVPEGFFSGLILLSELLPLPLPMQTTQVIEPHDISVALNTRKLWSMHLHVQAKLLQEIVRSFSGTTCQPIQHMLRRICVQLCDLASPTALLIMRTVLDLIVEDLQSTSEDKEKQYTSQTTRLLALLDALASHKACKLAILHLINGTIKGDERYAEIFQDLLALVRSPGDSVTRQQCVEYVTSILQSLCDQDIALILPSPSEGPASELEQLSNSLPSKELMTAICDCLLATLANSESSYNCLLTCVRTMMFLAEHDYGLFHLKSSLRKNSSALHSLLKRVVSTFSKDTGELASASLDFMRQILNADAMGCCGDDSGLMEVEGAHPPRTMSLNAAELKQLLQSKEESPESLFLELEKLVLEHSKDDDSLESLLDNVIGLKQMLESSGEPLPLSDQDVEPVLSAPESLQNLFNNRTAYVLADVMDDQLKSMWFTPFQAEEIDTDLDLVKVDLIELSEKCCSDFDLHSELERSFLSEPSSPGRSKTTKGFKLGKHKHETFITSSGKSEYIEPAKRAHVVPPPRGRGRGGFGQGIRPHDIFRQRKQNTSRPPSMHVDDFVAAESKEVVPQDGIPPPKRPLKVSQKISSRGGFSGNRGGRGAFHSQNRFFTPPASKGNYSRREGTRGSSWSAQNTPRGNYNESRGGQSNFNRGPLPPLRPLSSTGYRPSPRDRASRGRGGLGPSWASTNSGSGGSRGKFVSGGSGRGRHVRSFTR
UniProt B1AXP6: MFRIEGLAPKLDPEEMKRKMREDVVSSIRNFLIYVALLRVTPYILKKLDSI
UniProt A2AJQ3: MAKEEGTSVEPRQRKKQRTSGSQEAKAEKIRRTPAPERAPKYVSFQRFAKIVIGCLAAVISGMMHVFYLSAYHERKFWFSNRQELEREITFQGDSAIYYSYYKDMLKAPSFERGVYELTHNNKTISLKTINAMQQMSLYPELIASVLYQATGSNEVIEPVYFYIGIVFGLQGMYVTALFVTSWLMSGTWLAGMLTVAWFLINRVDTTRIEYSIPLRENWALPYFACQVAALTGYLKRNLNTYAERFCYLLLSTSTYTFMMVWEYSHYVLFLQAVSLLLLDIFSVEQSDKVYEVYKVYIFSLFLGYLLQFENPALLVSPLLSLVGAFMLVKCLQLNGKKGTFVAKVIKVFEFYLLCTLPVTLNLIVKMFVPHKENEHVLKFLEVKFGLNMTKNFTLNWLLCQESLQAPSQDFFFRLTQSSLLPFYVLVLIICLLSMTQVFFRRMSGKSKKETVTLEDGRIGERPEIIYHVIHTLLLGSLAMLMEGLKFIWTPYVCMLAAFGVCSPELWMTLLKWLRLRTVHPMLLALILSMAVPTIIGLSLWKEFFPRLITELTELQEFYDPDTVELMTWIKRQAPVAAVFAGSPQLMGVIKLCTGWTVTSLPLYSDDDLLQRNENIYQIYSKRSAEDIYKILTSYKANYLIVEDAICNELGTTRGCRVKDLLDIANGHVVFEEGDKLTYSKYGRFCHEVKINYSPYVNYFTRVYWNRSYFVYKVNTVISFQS
UniProt A6X942: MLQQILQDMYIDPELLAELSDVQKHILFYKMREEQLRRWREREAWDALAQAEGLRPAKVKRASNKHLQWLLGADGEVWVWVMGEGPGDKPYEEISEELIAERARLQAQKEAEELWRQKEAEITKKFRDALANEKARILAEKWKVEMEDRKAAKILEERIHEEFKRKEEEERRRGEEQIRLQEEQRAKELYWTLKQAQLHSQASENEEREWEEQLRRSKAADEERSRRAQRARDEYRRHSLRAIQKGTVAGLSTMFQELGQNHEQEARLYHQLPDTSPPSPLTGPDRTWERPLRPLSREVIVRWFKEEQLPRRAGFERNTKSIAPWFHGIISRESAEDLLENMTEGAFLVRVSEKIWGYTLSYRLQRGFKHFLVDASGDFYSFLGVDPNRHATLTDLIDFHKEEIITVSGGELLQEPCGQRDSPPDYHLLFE
UniProt A7MCT6: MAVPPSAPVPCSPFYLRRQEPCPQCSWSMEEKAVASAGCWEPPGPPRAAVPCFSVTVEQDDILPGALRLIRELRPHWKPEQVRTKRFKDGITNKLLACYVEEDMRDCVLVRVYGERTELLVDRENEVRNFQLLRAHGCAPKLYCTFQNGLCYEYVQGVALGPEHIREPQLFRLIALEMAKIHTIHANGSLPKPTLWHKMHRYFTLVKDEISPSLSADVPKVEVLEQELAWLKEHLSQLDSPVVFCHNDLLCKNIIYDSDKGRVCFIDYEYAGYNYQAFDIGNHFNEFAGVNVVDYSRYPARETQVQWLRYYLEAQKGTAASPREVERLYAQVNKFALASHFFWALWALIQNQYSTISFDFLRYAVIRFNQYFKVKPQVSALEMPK
UniProt A2A5K6: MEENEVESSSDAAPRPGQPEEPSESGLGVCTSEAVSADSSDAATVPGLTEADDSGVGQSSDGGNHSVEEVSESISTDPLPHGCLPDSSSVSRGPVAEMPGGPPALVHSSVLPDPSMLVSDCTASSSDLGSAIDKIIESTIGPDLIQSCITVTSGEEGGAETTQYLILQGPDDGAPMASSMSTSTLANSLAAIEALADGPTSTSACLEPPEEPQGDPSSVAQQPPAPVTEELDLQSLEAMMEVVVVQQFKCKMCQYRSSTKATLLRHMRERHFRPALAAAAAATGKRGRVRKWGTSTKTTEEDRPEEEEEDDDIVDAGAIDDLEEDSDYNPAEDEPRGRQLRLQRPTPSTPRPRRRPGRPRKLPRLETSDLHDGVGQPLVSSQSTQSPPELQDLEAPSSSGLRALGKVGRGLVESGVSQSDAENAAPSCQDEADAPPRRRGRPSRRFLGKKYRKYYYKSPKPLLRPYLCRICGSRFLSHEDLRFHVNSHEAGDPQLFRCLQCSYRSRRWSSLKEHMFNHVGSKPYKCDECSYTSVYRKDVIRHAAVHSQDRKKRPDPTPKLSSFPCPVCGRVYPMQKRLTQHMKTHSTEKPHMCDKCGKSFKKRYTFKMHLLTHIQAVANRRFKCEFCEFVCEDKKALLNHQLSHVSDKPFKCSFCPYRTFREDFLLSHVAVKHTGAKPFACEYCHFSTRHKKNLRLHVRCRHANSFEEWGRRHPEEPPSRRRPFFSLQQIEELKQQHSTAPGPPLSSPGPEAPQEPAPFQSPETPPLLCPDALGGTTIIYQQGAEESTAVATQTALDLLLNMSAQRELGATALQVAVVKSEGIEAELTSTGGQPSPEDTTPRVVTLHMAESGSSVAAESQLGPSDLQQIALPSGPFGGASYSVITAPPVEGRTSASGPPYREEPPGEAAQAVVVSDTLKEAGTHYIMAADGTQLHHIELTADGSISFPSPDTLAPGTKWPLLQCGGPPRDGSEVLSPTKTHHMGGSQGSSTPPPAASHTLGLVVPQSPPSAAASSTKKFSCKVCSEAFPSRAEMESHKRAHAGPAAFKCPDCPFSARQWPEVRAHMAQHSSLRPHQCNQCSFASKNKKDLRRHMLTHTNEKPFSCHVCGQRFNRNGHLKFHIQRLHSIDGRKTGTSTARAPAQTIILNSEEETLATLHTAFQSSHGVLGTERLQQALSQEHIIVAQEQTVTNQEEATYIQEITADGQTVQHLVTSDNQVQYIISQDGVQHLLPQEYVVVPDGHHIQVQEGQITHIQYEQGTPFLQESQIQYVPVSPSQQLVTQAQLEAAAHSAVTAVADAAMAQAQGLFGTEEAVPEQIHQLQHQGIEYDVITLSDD
UniProt A6H5Y3: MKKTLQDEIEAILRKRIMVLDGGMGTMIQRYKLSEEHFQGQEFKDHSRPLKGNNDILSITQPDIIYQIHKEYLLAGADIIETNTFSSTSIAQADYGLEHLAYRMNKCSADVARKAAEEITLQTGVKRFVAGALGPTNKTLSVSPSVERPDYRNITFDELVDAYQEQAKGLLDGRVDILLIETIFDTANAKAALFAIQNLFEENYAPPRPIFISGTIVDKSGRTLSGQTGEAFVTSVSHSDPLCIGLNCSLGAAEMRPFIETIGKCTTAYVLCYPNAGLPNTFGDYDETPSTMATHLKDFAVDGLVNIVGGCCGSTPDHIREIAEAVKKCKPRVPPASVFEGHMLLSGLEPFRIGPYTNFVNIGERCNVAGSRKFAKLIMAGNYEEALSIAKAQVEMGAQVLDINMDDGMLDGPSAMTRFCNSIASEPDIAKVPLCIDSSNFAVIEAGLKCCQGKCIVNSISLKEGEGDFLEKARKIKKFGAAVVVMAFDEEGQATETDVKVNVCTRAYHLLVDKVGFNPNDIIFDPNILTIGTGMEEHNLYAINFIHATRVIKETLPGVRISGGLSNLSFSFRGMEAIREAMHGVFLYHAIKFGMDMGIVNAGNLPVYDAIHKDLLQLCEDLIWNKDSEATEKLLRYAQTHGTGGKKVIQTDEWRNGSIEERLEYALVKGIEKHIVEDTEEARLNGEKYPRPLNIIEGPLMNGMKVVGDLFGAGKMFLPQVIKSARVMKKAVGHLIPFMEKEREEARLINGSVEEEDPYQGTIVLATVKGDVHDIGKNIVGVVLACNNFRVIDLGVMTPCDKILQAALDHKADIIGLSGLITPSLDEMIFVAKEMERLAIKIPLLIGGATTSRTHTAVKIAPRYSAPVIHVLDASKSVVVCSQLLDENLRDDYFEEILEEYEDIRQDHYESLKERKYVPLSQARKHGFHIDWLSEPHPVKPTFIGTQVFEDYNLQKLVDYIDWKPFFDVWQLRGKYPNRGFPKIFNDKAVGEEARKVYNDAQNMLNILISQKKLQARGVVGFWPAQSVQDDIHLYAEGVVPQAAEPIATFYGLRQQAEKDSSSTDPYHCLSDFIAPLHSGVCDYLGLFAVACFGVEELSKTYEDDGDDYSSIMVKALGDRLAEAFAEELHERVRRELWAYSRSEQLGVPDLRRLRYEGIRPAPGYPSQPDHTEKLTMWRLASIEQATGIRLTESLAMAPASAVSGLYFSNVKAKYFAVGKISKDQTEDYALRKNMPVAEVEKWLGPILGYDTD

Some of the results follow. Small differences around the control level are noise.

Compound in this assay: CN[C@@H]1C[C@H]2O[C@@](C)([C@@H]1OC)n1c3ccccc3c3c4c(c5c6ccccc6n2c5c31)C(=O)NC4 [staurosporine]
The experiment in a line: log2 fold change of tryptic peptide abundance, ligand vs vehicle (limited proteolysis) (log2 ratio); higher = more trypsin-susceptible (destabilized). The conditions noted are these: ligand concentration: 20 uM; sample: mouse liver crude lysate; replicate design: treated separately.
For the target “UniProt B2RU80 (peptide sequence: DRPLSVHLNLGQK, peptide start residue: 1663)”, the log2 fold change was -0.355.
For the target “UniProt A2ADY9 (peptide sequence: SAEDAERQKP, peptide start residue: 390)”, the log2 fold change was -0.597.
Then “UniProt A2AIV2 (peptide sequence: CHFYEILSEIKR, peptide start residue: 557)”, with 0.482.
With “UniProt A6PWY4 (peptide sequence: SSVDAYTESTR, peptide start residue: 113)” the figure was 0.0724.
Regarding “UniProt B1AXP6 (peptide sequence: LDPEEMKR, peptide start residue: 11)”, the log2 fold change came out at 0.109.
Turning to “UniProt A2AJQ3 (peptide sequence: AKEEGTSVEPR, peptide start residue: 2)”, the log2 fold change is -0.0298.
Then “UniProt A2A995 (peptide sequence: NDDPKTEVAGR, peptide start residue: 528)”, with 0.295; and “UniProt A2AM29 (peptide sequence: VKIESETSEK, peptide start residue: 339)”, with -0.0199.
Then “UniProt A2A884 (peptide sequence: RPWSPSKEAGSR, peptide start residue: 1930)”, with 0.296.
With “UniProt A6X942 (peptide sequence: KFRDALANEK, peptide start residue: 125)” the figure was 0.296.
Regarding “UniProt A6H6E2 (peptide sequence: LGQLWQDVEDQLHAQR, peptide start residue: 304)”, the log2 fold change turned out to be 0.164.
Then “UniProt A2AF47 (peptide sequence: AENIMASLER, peptide start residue: 300)”, with -0.0943; and “UniProt A2AWR3 (peptide sequence: EIGHSSPPSVSPK, peptide start residue: 855)”, with -0.345.
With “UniProt A7MCT6 (peptide sequence: ETQVQWLR, peptide start residue: 302)” the figure was -0.206; with “UniProt A2AHC3 (peptide sequence: ADGAPQPLRPEHFTK, peptide start residue: 920)”, 0.403.
Then “A0A0G2JDV3 (peptide sequence: MQASNSCRECIR, peptide start residue: 212), A0A0G2JDV3”, with -0.709.
With “UniProt A2A5Z6 (peptide sequence: THLHTPPDLPEGYEQR, peptide start residue: 245)”, the log2 fold change is -0.126.
With “UniProt A6H611 (peptide sequence: MMQGMKTK, peptide start residue: 336)” the figure was 0.297; with “A0A1W2P884 (peptide sequence: LTEALLENQR, peptide start residue: 669), A0A1W2P884”, -0.226; with “UniProt A2ARI4 (peptide sequence: YAYNLPR, peptide start residue: 942)”, -0.00197.
With “UniProt A6H8H2 (peptide sequence: TSDSEDKLFSPVISR, peptide start residue: 1212)” the figure was -0.278; with “UniProt A2A8U2 (peptide sequence: IKQLAAFTPR, peptide start residue: 132)”, 0.522; with “UniProt A2AQ19 (peptide sequence: FNDQDIEEIVKEKER, peptide start residue: 492)”, -0.554.
As for “UniProt A3KGB4 (peptide sequence: VLTAYAYRNPK, peptide start residue: 557)”, the log2 fold change turned out to be 0.298.
Then “UniProt B2RRF6 (peptide sequence: KSEEVVIK, peptide start residue: 815)”, with -0.316.
With “UniProt A2BE28 (peptide sequence: ELLVSYEEEQFKVLEK, peptide start residue: 255)” the figure was -0.59; with “UniProt A2AHJ4 (peptide sequence: FIQTRPK, peptide start residue: 1642)”, -0.527.
Then “UniProt A8Y5H7 (peptide sequence: LRQWLQETHK, peptide start residue: 262)”, with -0.329; and “UniProt A2AIL4 (peptide sequence: VDFDIFHPSLQQK, peptide start residue: 304)”, with 0.332; and “UniProt A2A5K6 (peptide sequence: ELGATALQVAVVK, peptide start residue: 807)”, with 0.0786.
“UniProt A2ARA8 (peptide sequence: DVPVVQLHR, peptide start residue: 906)”: the log2 fold change stood at 0.077.
With “UniProt B1AZI6 (peptide sequence: LIALAICK, peptide start residue: 378)” the figure was -0.593; with “UniProt A2A6Q5 (peptide sequence: LDSSIISEGK, peptide start residue: 433)”, 0.289; with “UniProt B1AQJ2 (peptide sequence: FGNQEDAHEFLR, peptide start residue: 203)”, -0.862.
For “UniProt A6H5Y3 (peptide sequence: LNGEKYPRPLNIIEGPLMNGMK, peptide start residue: 684)”, the log2 fold change came to 0.129.
